Data taken from PubChem BioAssay AID1347117, deposited by NCATS (2019).

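BT-37 cells, a line derived from a pediatric solid tumor, tested for viability by a luminescent signal from living, metabolically active cells after two days of exposure. Each compound ran as an 11-point dilution series reaching about 46 µM at the top. The number is the fitted concentration giving half of the maximal drop in viability (AC50); a lower value means more potent cell killing. Calls follow the fitted curve class and activity score. Inconclusive rows score below the active band of 40 to 100, and here mostly show partial, poorly fitted or top-dose-only killing.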

Values are in µM. Every entry below has the call inconclusive. These entries are mostly ones the record files as inconclusive; other results of the assay are not listed here. A potency from a partial, single-point or poor curve is only a rough figure. Some entries filed as inconclusive have a full curve. Activity scores are not listed here.

{"structure": "CCOc1cc2ncc(C#N)c(Nc3ccc(OCc4ccccn4)c(Cl)c3)c2cc1NC(=O)C=CCN(C)C", "Potency (µM)": "5.852", "curve as filed": "cytotoxic, full curve"}
{"structure": "CCN(CC)CCNC(=O)c1c(C)[nH]c(C=C2C(=O)Nc3ccc(F)cc32)c1C", "Potency (µM)": "33.89", "curve as filed": "cytotoxic, partial curve, poor fit"}
{"structure": "CC(=O)N1CCN(c2ccc(OCc3nn(C)c(C)c3-c3cccc4c(CCCOc5cc(C)c(Cl)c(C)c5)c(C(=O)O)n(Cc5cccnc5)c34)cc2)CC1", "Potency (µM)": "1.041", "curve as filed": "cytotoxic, full curve, poor fit"}
{"structure": "Cn1cnc2c(F)c(Nc3ccc(Br)cc3Cl)c(C(=O)NOCCO)cc21", "Potency (µM)": "11.68", "curve as filed": "cytotoxic, partial curve"}
{"structure": "O=C1c2c(O)cccc2[C@@H]([C@@H]2O[C@H](CO)[C@@H](O)[C@H](O)[C@H]2O)c2cc(CO)cc(O)c21", "Potency (µM)": "36.92", "curve as filed": "cytotoxic, single point"}
{"structure": "CC(=O)[C@H]1CC[C@H]2[C@@H]3CCC4=CC(=O)CC[C@]4(C)[C@H]3CC[C@]12C", "Potency (µM)": "5.216", "curve as filed": "cytotoxic, partial curve, poor fit"}
{"structure": "C[C@@]12OC(=O)[C@]1([C@@H](O)[C@@H]1C=CCCC1)NC(=O)[C@H]2CCCl", "Potency (µM)": "1.041", "curve as filed": "cytotoxic, full curve, poor fit"}
{"structure": "Cc1ccc2nc(N)[nH]c(=O)c2c1Sc1ccncc1", "Potency (µM)": "14.7", "curve as filed": "cytotoxic, partial curve"}
{"structure": "Cc1nc(Nc2ncc(C(=O)Nc3c(C)cccc3Cl)s2)cc(N2CCN(CCO)CC2)n1", "Potency (µM)": "0.0016", "curve as filed": "cytotoxic"}
{"structure": "COc1cc2c(cc1Cc1cccc(Cl)c1F)c(=O)c(C(=O)O)cn2[C@H](CO)C(C)C", "Potency (µM)": "23.3", "curve as filed": "cytotoxic, single point"}
{"structure": "CCC(C)n1ncn(-c2ccc(N3CCN(c4ccc(OC[C@H]5CO[C@](Cn6cncn6)(c6ccc(Cl)cc6Cl)O5)cc4)CC3)cc2)c1=O", "stereo": "stereo not given in full", "Potency (µM)": "20.76", "curve as filed": "cytotoxic, partial curve, poor fit"}
{"structure": "Cc1ccc2nc(NC(=O)CSc3nc4c(c(=O)n3-c3ccccc3)SCC4)sc2c1", "Potency (µM)": "18.51", "curve as filed": "cytotoxic, partial curve"}
{"structure": "CCc1c2c(nc3ccc(O)cc13)-c1cc3c(c(=O)n1C2)COC(=O)[C@]3(O)CC", "Potency (µM)": "0.0585", "curve as filed": "cytotoxic, full curve, poor fit"}
{"structure": "CC(=O)O[C@]1(C(C)=O)CC[C@@H]2[C@@H]3C[C@H](C)C4=CC(=O)CC[C@]4(C)[C@H]3CC[C@@]21C", "Potency (µM)": "36.92", "curve as filed": "cytotoxic, partial curve, poor fit"}
{"structure": "Nc1nc2[nH]cc(CCc3ccc(C(=O)N[C@@H](CCC(=O)O)C(=O)O)cc3)c2c(=O)[nH]1", "Potency (µM)": "1.041", "curve as filed": "cytotoxic, full curve, poor fit"}
{"structure": "O=C(C=Cc1ccc(CN(CCO)CCc2c[nH]c3ccccc23)cc1)NO", "Potency (µM)": "0.0827", "curve as filed": "cytotoxic, full curve, poor fit"}
{"structure": "N[C@@H](Cc1ccc(N(CCCl)CCCl)cc1)C(=O)O", "Potency (µM)": "0.8266", "curve as filed": "cytotoxic, full curve, poor fit"}

The first 2 entries again:

structure,Potency (µM),curve as filed
CCOc1cc2ncc(C#N)c(Nc3ccc(OCc4ccccn4)c(Cl)c3)c2cc1NC(=O)C=CCN(C)C,5.852,"cytotoxic, full curve"
CCN(CC)CCNC(=O)c1c(C)[nH]c(C=C2C(=O)Nc3ccc(F)cc32)c1C,33.89,"cytotoxic, partial curve, poor fit"